At least one read-out could not be matched to a standard name with certainty.
System: CD4+ cell line, Molt4
Test: Cellular cytotoxicity in Molt4 cells
Type: cell-based
Conditions: Measured via XTT
Experimental: Cytotoxicity was tested with the CD4+cell line, Molt4. The compounds of the present invention were dissolved in DMSO in order to maximize solubility and provide a common solvent system. […] Cytotoxicity was measured as the inhibition of ^3 H-thymidine incorporation into the host cell's genome after exposure to the compounds of the present invention.

Substance: tetrahydro-imidazo[4,5,1-jk][1,4]-benzodiazepin-2-(1H)-one and -thione [TIBO, reference compound]
- CC50: 19 µM

Source: patent publication US5723631A, “Coumarin derivatives as retroviral inhibitors” (SmithKline Beecham Corporation, priority 1995, dated 1998)
